Experimental data as given in PMC7378191.

Legend:
[1] = target: T1, Flag-tagged HSD17B10 (17-beta-hydroxysteroid dehydrogenase 10), wild type (human) (UniProt Q99714); test: co-IP; tagged proteins co-transfected into HEK293T cells; lysis in BC100 buffer (100 mM NaCl, 20 mM pH7.3 Tris, 20% glycerol, 0.2% NP-40); immunoprecipitation with anti-Flag M2 beads at 4 °C overnight; western blot
T1 sequence: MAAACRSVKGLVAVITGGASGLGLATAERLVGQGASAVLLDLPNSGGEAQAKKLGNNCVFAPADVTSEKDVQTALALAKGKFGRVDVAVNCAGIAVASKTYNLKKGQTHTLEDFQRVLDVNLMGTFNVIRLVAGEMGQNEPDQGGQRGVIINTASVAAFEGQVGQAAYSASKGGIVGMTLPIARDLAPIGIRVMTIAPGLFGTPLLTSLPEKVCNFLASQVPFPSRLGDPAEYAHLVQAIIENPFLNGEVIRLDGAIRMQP

GST-HSD17B10 (human) = target: T2, GST-HSD17B10 (human) (UniProt Q99714); test: pull-down; GST fusion proteins bound to GST-agarose beads, incubated with Flag-tagged proteins purified from HEK293T in buffer BC200 at 4 °C overnight; washed with BC100; western blot; both purified
T2 sequence: T1 sequence

[2] = target: T3, Endogenous HSD17B10 (HCT116 cells) (human (endogenous in HCT116)) (UniProt Q99714); test: co-IP; endogenous proteins of HCT116 cells; lysates incubated with 1 μg anti-SIRT3 or anti-HSD17B10 (rabbit or mouse IgG as control) at 4 °C overnight, Protein A/G agarose beads; western blot
T3 sequence: T1 sequence

[3] = target: T4, Flag-tagged HSD17B10 expressed in HCT116 cells (human) (UniProt Q99714); test: co-IP; Flag-tagged HSD17B10 transfected into HCT116 cells; cells treated with H2O2, EBSS or serum starvation for the indicated time; immunoprecipitation with M2 beads
T4 sequence: T1 sequence

Flag-tagged SIRT3 = test: co-IP; tagged proteins co-transfected into HEK293T cells; lysis in BC100 buffer (100 mM NaCl, 20 mM pH7.3 Tris, 20% glycerol, 0.2% NP-40); immunoprecipitation with anti-Flag M2 beads at 4 °C overnight; western blot
[4] = target: Endogenous SIRT3 (HCT116 cells) (human (endogenous in HCT116)); test: co-IP; endogenous proteins of HCT116 cells; lysates incubated with 1 μg anti-SIRT3 or anti-HSD17B10 (rabbit or mouse IgG as control) at 4 °C overnight, Protein A/G agarose beads; western blot
GST-SIRT3 = test: pull-down; GST fusion proteins bound to GST-agarose beads, incubated with Flag-tagged proteins purified from HEK293T in buffer BC200 at 4 °C overnight; washed with BC100; western blot; both purified

binding [1]: binds
Molecule: HA-tagged SIRT3 (NAD-dependent deacetylase Sirtuin 3) (enzyme)

binding (GST-HSD17B10 (human)): binds
Molecule: Flag-tagged SIRT3 (enzyme)

binding [2]: binds
binding [3]: binds
Molecule: Endogenous SIRT3 (HCT116 cells) (human (endogenous in HCT116)) (enzyme)

binding (Flag-tagged SIRT3): binds
B1: HA-tagged HSD17B10 (protein, UniProt Q99714 1-261)
chain: T1 sequence

binding [4]: binds
B2: Endogenous HSD17B10 (HCT116 cells) (protein, UniProt Q99714 1-261)
chain: T1 sequence

binding (GST-SIRT3): binds
B3: Flag-tagged HSD17B10 (17-beta-hydroxysteroid dehydrogenase 10), wild type (protein, UniProt Q99714 1-261)
chain: T1 sequence

No constants are given. Whether binding was seen depends on the method and setting. Binding can be weak; no strength is given. For some of these results: Tags and fused reporters may be left off the sequences shown. For some of these results: Binding seen in cells or lysates may run through a third protein. One block for each molecule: values may come before it.
